Measurements taken from the supplement of paper PMC8728848.
This is one part of the list.

How the values were obtained:
Test in all cases: glycan array binding signal (z-score within array); higher = stronger binding
Conditions in all cases: glycan notation: IUPAC condensed, linker removed
[1] = target: Fuc(a1-2)[GalNAc(a1-3)]Gal(b1-3)GlcNAc(b1-6)GalNAc
How it was run: (§1)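 Glycan array data were curated from 3228 arrays in the Consortium for Functional Glycomics database and kept only where the protein sequence was available. Glycan names were converted to IUPAC-condensed notation, and columns mapping to the same glycan were averaged. The binding signal is a within-array Z-score, averaged across arrays of the same protein sequence at different concentrations or buffers and across linkers. Negative Z-scores can be read as non-binding.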

[2] = target: Fuc(a1-2)[GalNAc(a1-3)]Gal(b1-4)Glc
How it was run: as §1

[3] = target: Fuc(a1-2)[GalNAc(a1-3)]Gal(b1-4)GlcNAc
How it was run: as §1

[4] = target: Fuc(a1-2)[GalNAc(a1-3)]Gal(b1-4)GlcNAc(b1-2)Man
How it was run: as §1

[5] = target: Fuc(a1-2)[GalNAc(a1-3)]Gal(b1-4)GlcNAc(b1-2)Man(a1-3)[Fuc(a1-2)[GalNAc(a1-3)]Gal(b1-4)GlcNAc(b1-2)Man(a1-6)]Man(b1-4)GlcNAc(b1-4)GlcNAc
How it was run: as §1

[6] = target: Fuc(a1-2)[GalNAc(a1-3)]Gal(b1-4)GlcNAc(b1-2)Man(a1-3)[Fuc(a1-2)[GalNAc(a1-3)]Gal(b1-4)GlcNAc(b1-2)Man(a1-6)]Man(b1-4)GlcNAc(b1-4)[Fuc(a1-6)]GlcNAc
How it was run: as §1

[7] = target: Fuc(a1-2)[GalNAc(a1-3)]Gal(b1-4)GlcNAc(b1-3)Gal(b1-4)GlcNAc
How it was run: as §1

[8] = target: Fuc(a1-2)[GalNAc(a1-3)]Gal(b1-4)GlcNAc(b1-3)Gal(b1-4)GlcNAc(b1-3)Gal(b1-4)GlcNAc
How it was run: as §1

[9] = target: Fuc(a1-2)[GalNAc(a1-3)]Gal(b1-4)GlcNAc(b1-3)GalNAc
How it was run: as §1

[10] = target: Fuc(a1-2)[GalNAc(a1-3)]Gal(b1-4)GlcNAc(b1-3)[Fuc(a1-2)[GalNAc(a1-3)]Gal(b1-4)GlcNAc(b1-6)]GalNAc
How it was run: as §1

[11] = target: Fuc(a1-2)[GalNAc(a1-3)]Gal(b1-4)GlcNAc(b1-6)GalNAc
How it was run: as §1

[12] = target: Fuc(a1-2)[GalNAc(a1-3)]Gal(b1-4)[Fuc(a1-3)]GlcNAc
How it was run: as §1

[13] = target: Fuc(a1-2)[GalNAc(a1-3)]Gal(b1-4)[Fuc(a1-3)]GlcNAc(b1-3)GalNAc
How it was run: as §1

[14] = target: Fuc(a1-2)[GalNAc(a1-4)]Gal(b1-4)GlcNAc
How it was run: as §1

[15] = target: Fuc(a1-2)[GalNAc(b1-3)]Gal
How it was run: as §1

Fuc(a1-3)GlcNAc = target: Fuc(a1-3)GlcNAc
How it was run: as §1

[16] = target: Fuc(a1-3)[Gal(b1-4)]Glc6S
How it was run: as §1

[17] = target: Fuc(a1-3)[Gal(b1-4)]GlcNAc
How it was run: as §1

[18] = target: Fuc(a1-3)[Gal(b1-4)]GlcNAc(b1-2)Man
How it was run: as §1

[19] = target: Fuc(a1-3)[Gal(b1-4)]GlcNAc(b1-2)Man(a1-3)[Fuc(a1-3)[Gal(b1-4)]GlcNAc(b1-2)Man(a1-6)]Man(b1-4)GlcNAc(b1-4)GlcNAc
How it was run: as §1

[20] = target: Fuc(a1-3)[Gal(b1-4)]GlcNAc(b1-2)Man(a1-3)[Fuc(a1-3)[Gal(b1-4)]GlcNAc(b1-2)Man(a1-6)]Man(b1-4)GlcNAc(b1-4)[Fuc(a1-6)]GlcNAc
How it was run: as §1

[21] = target: Fuc(a1-3)[Gal(b1-4)]GlcNAc(b1-3)Gal(b1-3)[Fuc(a1-4)]GlcNAc
How it was run: as §1

[22] = target: Fuc(a1-3)[Gal(b1-4)]GlcNAc(b1-3)Gal(b1-4)[Fuc(a1-3)]GlcNAc
How it was run: as §1

[23] = target: Fuc(a1-3)[Gal(b1-4)]GlcNAc(b1-3)Gal(b1-4)[Fuc(a1-3)]GlcNAc(b1-3)Gal(b1-4)[Fuc(a1-3)]GlcNAc
How it was run: as §1

[24] = target: Fuc(a1-3)[Gal(b1-4)]GlcNAc(b1-3)GalNAc
How it was run: as §1

[25] = target: Fuc(a1-3)[Gal(b1-4)]GlcNAc(b1-6)GalNAc
How it was run: as §1

[26] = target: Fuc(a1-3)[Gal(b1-4)]GlcNAc(b1-6)[Gal(b1-3)GlcNAc(b1-3)]Gal(b1-4)Glc
How it was run: as §1

[27] = target: Fuc(a1-3)[Gal(b1-4)]GlcNAc6S
How it was run: as §1

[28] = target: Fuc(a1-3)[Gal3S(b1-4)]Glc
How it was run: as §1

[29] = target: Fuc(a1-3)[Gal3S(b1-4)]GlcNAc
How it was run: as §1

[30] = target: Fuc(a1-3)[Gal3S(b1-4)]GlcNAc6S
How it was run: as §1

[31] = target: Fuc(a1-3)[GalNAc(b1-4)]GlcNAc
How it was run: as §1

[32] = target: Fuc(a1-3)[GalNAc(b1-4)]GlcNAc6S
How it was run: as §1

Fuc(a1-4)GlcNAc = target: Fuc(a1-4)GlcNAc
How it was run: as §1

Fuc(b1-3)GlcNAc = target: Fuc(b1-3)GlcNAc
How it was run: as §1

Gal(a1-2)Gal = target: Gal(a1-2)Gal
How it was run: as §1

Gal(a1-3)Gal = target: Gal(a1-3)Gal
How it was run: as §1

B1: Sp8391B-bot-388-20-388 (Bacteroides ovatus) (protein)
chain: GCQNNDENEQHYDNKLFISASNFTKEILFKAGDTNVETGLSVAIAKPEEHDIKVTMSPAPELLSTYKLAYYDETAVLLSEEHYSMPETSTTIKSGSIVSPELPIEFINTGELDIKTTYVLPVTIKSVEGIGVLQSAKTYYYVFRGASLINVVCNISRNRAYPDFKNDSKFNNLTENTMEILFKANSFPNTLNTLMGIESNYLLRIGDATIPNNQLQVATSVNNCTSADLQLESGKWYHVAVAFNKGNVKVYINGVEKLSGSTGKSSVSLGAKHTNEEDGSRCFWVGYSYKDDRYFDGVVSEVRIWNRALTAEEIQATNHFYTIEPESEGLIAYWKFDEGSGTVAKDYSVSGYDLTIEKEPKWESVSLPQ
[1]
  glycan array binding signal (z-score): -0.738
[2]
  glycan array binding signal (z-score): -1.4
[3]
  glycan array binding signal (z-score): -0.704
[4]
  glycan array binding signal (z-score): -0.265
[5]
  glycan array binding signal (z-score): -0.023
[6]
  glycan array binding signal (z-score): 0.309
[7]
  glycan array binding signal (z-score): 0.965
[8]
  glycan array binding signal (z-score): 0.044
[9]
  glycan array binding signal (z-score): 0.153
[10]
  glycan array binding signal (z-score): -0.308
[11]
  glycan array binding signal (z-score): 0.687
[12]
  glycan array binding signal (z-score): -0.217
[13]
  glycan array binding signal (z-score): -0.673
[14]
  glycan array binding signal (z-score): -0.233
[15]
  glycan array binding signal (z-score): -0.282
Fuc(a1-3)GlcNAc
  glycan array binding signal (z-score): -0.481
[16]
  glycan array binding signal (z-score): 0.341
[17]
  glycan array binding signal (z-score): 0.177
[18]
  glycan array binding signal (z-score): -0.257
[19]
  glycan array binding signal (z-score): 0.155
[20]
  glycan array binding signal (z-score): 0.98
[21]
  glycan array binding signal (z-score): -0.095
[22]
  glycan array binding signal (z-score): 0.859
[23]
  glycan array binding signal (z-score): -0.3
[24]
  glycan array binding signal (z-score): -0.297
[25]
  glycan array binding signal (z-score): 4.03
[26]
  glycan array binding signal (z-score): -0.595
[27]
  glycan array binding signal (z-score): -0.314
[28]
  glycan array binding signal (z-score): -0.651
[29]
  glycan array binding signal (z-score): -0.709
[30]
  glycan array binding signal (z-score): -0.537
[31]
  glycan array binding signal (z-score): 0.276
[32]
  glycan array binding signal (z-score): -0.385
Fuc(a1-4)GlcNAc
  glycan array binding signal (z-score): -0.039
Fuc(b1-3)GlcNAc
  glycan array binding signal (z-score): -0.126
Gal(a1-2)Gal
  glycan array binding signal (z-score): 0.399
Gal(a1-3)Gal
  glycan array binding signal (z-score): 0.757
